# Data: PubChem BioAssay AID504444 (National Center for Advancing Translational Sciences (NCATS), 2011)
# The campaign covered roughly 360,000 compounds. About 7,500 (2.1%) were called active. Inconclusive results, whose numbers are uncertain, are shown with a selection of clear calls. The call rests on the fitted dose curve; in most records, active means well fitted inhibition curve with a large enough effect; inconclusive means small, poorly fitted or top-dose-only effect, or effect the other way; inactive means flat fitted curve, though single readings scatter. Potencies of inconclusive entries are doubtful fits and often do not repeat.
# Assay: Nrf2 qHTS screen for inhibitors; further: nearly all actives have a fitted effect of over 60% in size
# Details: A549 ARE-Fluc reporter, luciferase luminescence, 18-24 h; series mostly up to 46 µM
# Procedure, shortened: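 Concentration-response testing used A549 ARE_Fluc cells at 5000 cells/well. Following an 18-24 h compound incubation, viability was read by fluorescence (Ex 405/Em 525) and luciferase output by luminescence.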
# Potency means the concentration at half of the fitted maximal effect.
row,Compound,Potency
1,CCOc1cc(/C=C2/N=C(C)C(C(=O)OC)=C2O)ccc1O,"inconclusive: 3.26 µM [falling, full curve, poor fit]"
2,O=C(/C=C/c1ccco1)Oc1cc(Br)cc(/C=N/NC(=O)c2ccccc2O)c1,"inconclusive: 11.6 µM [falling, partial curve, poor fit]"
3,Nc1nc(=O)n(C2CC(O)C(CO)O2)cc1F (stereo not given),"inconclusive: 0.103 µM [falling, full curve, poor fit]"
4,COc1ccc(NC(=O)c2ccc(NC(=O)COC(=O)CC(NC(=O)c3ccccc3Cl)c3ccccc3)cc2)cc1 (stereo not given),"inconclusive: 7.31 µM [activator, partial curve]"
5,Cc1cc(C)c(NC2=NCC(=O)N2C2CCCCC2)c(C)c1,inactive
6,Cc1cccnc1Nc1nc(-c2ccc(F)cc2)cs1,"inconclusive: 8.2 µM [activator, partial curve]"
7,COc1cccc(-c2csc(N3CCN(C(=O)Nc4ccccc4Cl)CC3)n2)c1,inactive
8,CCOc1ccc(-c2nnc(SCC(=O)Nc3cccc(Cl)c3C)o2)cc1,"inconclusive: 29.1 µM [falling, single point]"
9,CCCCCNc1nc(-c2ccccc2)nc(-n2ccnc2)n1,inactive
10,CC(C)Oc1ccc(CNS(=O)(=O)c2ccc(-c3cc(C(F)(F)F)on3)s2)cc1,"inconclusive: 11.6 µM [activator, partial curve, poor fit]"
11,O=C(CSc1n[nH]c(-c2cccs2)n1)N1CCOCC1,"inconclusive: 29.1 µM [activator, single point]"
12,Cc1ccc2oc(C(=O)Nc3ccc(S(=O)(=O)Nc4nc(C)cc(C)n4)cc3)cc(=O)c2c1,"inconclusive: 14.6 µM [falling, partial curve, poor fit]"
13,COCc1ccc(C(=O)N2CCCC(C(=O)c3ccc(SC)cc3)C2)s1 (stereo not given),"inconclusive: 32.6 µM [falling, single point]"
14,CCSc1nnc(SCC(=O)Nc2cc(C)on2)s1,"inconclusive: 0.0651 µM [falling, full curve, poor fit]"
15,COc1ccc(S(=O)(=O)N2CCN(C(=O)/C=C/c3ccco3)CC2)cc1,inactive
16,CCCc1cc(=O)[nH]c(SCC(=O)NC(=O)NC2CCCC2)n1,"inconclusive: 20.6 µM [falling, partial curve]"
17,Cc1cccc(OCCSc2ncnc3nc[nH]c23)c1,"inconclusive: 25.9 µM [falling, partial curve, poor fit]"
18,Cc1ccn2c(NC3CCCC3)c(-c3ccccn3)nc2c1,"inconclusive: 23.1 µM [falling, partial curve, poor fit]"
19,Cc1ccc(N=Cc2c(C)[nH]n(-c3ccccc3)c2=O)nc1,inactive
20,Cc1ccc(CCNC(=O)C2CCN(S(=O)(=O)c3ccc4c(c3)oc(=O)n4C)CC2)cc1,"inconclusive: 2.31 µM [activator, single point]"

# A stretch of the results above, as a working copy:
row,Compound,Potency
10,CC(C)Oc1ccc(CNS(=O)(=O)c2ccc(-c3cc(C(F)(F)F)on3)s2)cc1,"inconclusive: 11.6 µM [activator, partial curve, poor fit]"
11,O=C(CSc1n[nH]c(-c2cccs2)n1)N1CCOCC1,"inconclusive: 29.1 µM [activator, single point]"

# (list continues)

row,Compound,Potency
1,Cc1ccc2nc(NC(=O)C3CCN(S(=O)(=O)c4cc([N+](=O)[O-])ccc4Cl)CC3)sc2c1,"inconclusive: 1.84 µM [activator, partial curve]"
2,CC1=C(C(=O)Nc2cccc(C(F)(F)F)c2)C2(CCN(C(C)C)CC2)OC1=O,"inconclusive: 16.4 µM [activator, partial curve]"
3,Cc1cc2c(cc1S(=O)(=O)Nc1cccc(Cl)c1C)OCCN2C,inactive
4,O=c1cc(-c2ccccc2)nc2c(-c3ccccc3)c(C(F)(F)F)[nH]n12,"inconclusive: 18.4 µM [falling, single point]"
5,NC(=O)c1cnn(-c2cc(Oc3ccccc3)ncn2)c1N,"inconclusive: 29.1 µM [activator, single point]"
6,O=C(O)c1ccc(N=NNc2cccc([N+](=O)[O-])c2)cc1,"inconclusive: 9.2 µM [activator, partial curve]"
7,COc1ccc(S(=O)(=O)N(C)C[C@H]2Oc3ccc(NC(=O)Nc4ccc(C(F)(F)F)cc4)cc3C(=O)N([C@H](C)CO)C[C@@H]2C)cc1,active: 23.1 µM
8,Cc1ccc(Cl)cc1N1CCN(C(=O)COCc2cc(-c3ccc4c(c3)OCO4)on2)CC1,"inconclusive: 32.6 µM [falling, single point]"
9,Cc1c(-c2nc(-c3ccc4c(c3)OCO4)no2)nnn1-c1cccc(C(F)(F)F)c1,"inconclusive: 20.6 µM [activator, single point]"
10,Cc1ccc(OCCC(=O)OCC(=O)c2c(N)n(CC(C)C)c(=O)n(C)c2=O)cc1,inactive
11,Cc1ccc(CNC(=O)C2CCCN(Cc3nc(-c4cccc(C)c4)oc3C)C2)cc1 (stereo not given),"inconclusive: 5.17 µM [falling, partial curve, poor fit]"
12,O=C(CCc1nc(-c2ccccc2Cl)no1)Nc1cccnc1,"inconclusive: 23.1 µM [falling, single point]"
13,Cc1ccc2nc(SCC(=O)N3CCC(Cc4ccccc4)CC3)nc(=O)n2c1,"inconclusive: 18.4 µM [falling, single point]"
14,O=C(c1cnn2c(C(F)(F)F)cc(-c3cccs3)nc12)N1CCN(Cc2ccccc2)CC1,"inconclusive: 25.9 µM [falling, single point]"
15,O=C(NCCc1ccccc1)C1CCN(c2ncccn2)CC1,"inconclusive: 29.1 µM [activator, single point]"
16,O=C(NC1CCCCCCC1)C1CCN(S(=O)(=O)N2CCCC2)CC1,"inconclusive: 9.2 µM [activator, partial curve]"
17,Cc1ccc2[nH]c(C)c(CCN(Cc3cccnc3)C(=S)NC(C)(C)C)c2c1,"inconclusive: 2.31 µM [activator, single point]"
18,CC1=C(C(=O)OC2CCCCCC2)C(c2ccc(Cl)cc2)CC(=O)N1 (stereo not given),"inconclusive: 14.6 µM [falling, partial curve]"
19,CN1CCN(S(=O)(=O)c2cccc(C(=O)Nc3cc(C(N)=O)cc(C(N)=O)c3)c2)CC1,"inconclusive: 18.4 µM [activator, single point]"
20,COc1ccc(Cl)cc1C(=O)NCc1nc(-c2cccc(C)c2)no1,"inconclusive: 4.11 µM [falling, partial curve]"
